These results are taken from patent US20220057415A1, “METHOD FOR DETECTING ALLERGIC DISEASES” (The University of Tokyo, priority 2018, published 2022).

This series has as its system allergic rhinitis model mice. Briefly: Lipid mediators in urine by LC-MS/MS. It is filed as in vivo, BALB/C mice. The following applies: 24 hours, 5-time and 10-time OVA-administered groups vs solvent-administered groups.
For the molecule “12-hydroxy eicosapentaenoic acid [12-HEPE]”, the “amount of lipid mediator (peak area relative to internal standard)” value is listed as “tend to be larger”. On to `CCCCC/C=C\C[C@@H](O)/C=C/C=C\C/C=C\CCCC(=O)O` [12-HETE, 12-hydroxyeicosatetraenoic acid], for which the “amount of lipid mediator (peak area relative to internal standard)” value is listed as “tend to be larger”. The entry for `CCCCC[C@H](O)/C=C/[C@H]1C(=O)C[C@H](O)[C@@H]1C/C=C\CCCC(=O)O` [PGD2, prostaglandin D2] is “tend to be larger”.
